PubChem BioAssay AID1159584 – Peter MacCallum Cancer Centre | 2016

Purpose: 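Genes that CDH1-null MCF10A cells selectively depend on to survive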 (primary screen)
Cells: human MCF10A breast epithelial cells, parental and CDH1-null
Reagent: siRNA against human genes
Read-out: 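Cell viability by CellTiter-Glo ATP luminescence, each line scaled to the mean of mock wells across plates, then CDH1-null over parental ratio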
Reading the numbers: CDH1-null / parental viability ratio: higher = CDH1-null cells survive relatively better than parental; CDH1-null viability vs mock: higher = more viable CDH1-null cells
In all, the deposit lists about 18,000 reagents; shown is a random part of them. Further read-outs or replicates are left out here. The record does not give: the amount of reagent, the time to read-out.

The first 5 entries, to show the layout:
| Gene | PubChem SID | CDH1-null / parental viability ratio | CDH1-null viability vs mock (fraction of mock) |
| --- | --- | --- | --- |
| DLAT (dihydrolipoamide S-acetyltransferase) | SID134313360 | 1.01 | 0.91 |
| PRLR (prolactin receptor) | SID134311721 | 0.74 | 0.57 |
| FOXJ1 (forkhead box J1) | SID135621919 | 0.94 | 0.84 |
| SMG8 (SMG8 nonsense mediated mRNA decay factor) | SID134320470 | 0.69 | 0.52 |
| C16orf46 (chromosome 16 open reading frame 46) | SID152150575 | 0.83 | 0.7 |

The list itself, repeating the preview:
| Gene | PubChem SID | CDH1-null / parental viability ratio | CDH1-null viability vs mock (fraction of mock) |
| --- | --- | --- | --- |
| DLAT (dihydrolipoamide S-acetyltransferase) | SID134313360 | 1.01 | 0.91 |
| PRLR (prolactin receptor) | SID134311721 | 0.74 | 0.57 |
| FOXJ1 (forkhead box J1) | SID135621919 | 0.94 | 0.84 |
| SMG8 (SMG8 nonsense mediated mRNA decay factor) | SID134320470 | 0.69 | 0.52 |
| C16orf46 (chromosome 16 open reading frame 46) | SID152150575 | 0.83 | 0.7 |
| TATDN2 (TatD DNase domain containing 2) | SID152149190 | 1.19 | 1.08 |
| PPP1R42 (protein phosphatase 1 regulatory subunit 42) | SID135624525 | 0.82 | 0.41 |
| OR2Y1 (olfactory receptor family 2 subfamily Y member 1) | SID134329776 | 1 | 0.86 |
| ZZEF1 (zinc finger ZZ-type and EF-hand domain containing 1) | SID152156546 | 0.88 | 0.6 |
| MYL6B (myosin light chain 6B) | SID152147074 | 0.78 | 0.45 |
| HSD3B2 | SID152155917 | 1.01 | 1.04 |
| RBFOX2 (RNA binding fox-1 homolog 2) | SID135624015 | 1.17 | 0.34 |
| RBP5 (retinol binding protein 5) | SID135621548 | 0.86 | 0.76 |
| OR5F1 (olfactory receptor family 5 subfamily F member 1) | SID152152192 | 1.07 | 0.64 |
| SLC30A3 | SID152152608 | 0.96 | 1.01 |
| BSG (basigin (Ok blood group)) | SID134315228 | 0.83 | 0.6 |
| NR5A2 (nuclear receptor subfamily 5 group A member 2) | SID134309881 | 0.86 | 0.59 |
| RNF43 (ring finger protein 43) | SID152150408 | 1.02 | 0.98 |
| BCL6 (BCL6 transcription repressor) | SID134315918 | 1.07 | 0.94 |
| TFEB (transcription factor EB) | SID135621842 | 1.16 | 0.74 |
| SLC39A12 | SID152149010 | 1.13 | 1.16 |
| OLFML2B (olfactomedin like 2B) | SID134325278 | 1.12 | 1.23 |
| PTCD2 (pentatricopeptide repeat domain 2) | SID152152731 | 1.5 | 0.66 |
| ACOT9 (acyl-CoA thioesterase 9) | SID135621876 | 0.99 | 0.73 |
| ASB7 (ankyrin repeat and SOCS box containing 7) | SID134317180 | 1.03 | 0.98 |
| LIPA (lipase A, lysosomal acid type) | SID152152954 | 0.78 | 0.8 |
| PIM2 (Pim-2 proto-oncogene, serine/threonine kinase) | SID56479034 | 1.06 | 0.85 |
| METTL2B (methyltransferase 2B, tRNA N3-cytidine) | SID135621630 | 0.99 | 0.91 |
| YWHAG | SID152151328 | 0.64 | 0.29 |
| DAB1 (DAB adaptor protein 1) | SID134313784 | 1.17 | 0.98 |
| C1R (complement C1r) | SID152153762 | 1.15 | 0.83 |
| KRTAP12-1 (keratin associated protein 12-1) | SID134322676 | 0.93 | 0.78 |
| HOXB7 (homeobox B7) | SID152155176 | 0.74 | 0.55 |
| CAMKMT (calmodulin-lysine N-methyltransferase) | SID135622744 | 0.99 | 0.82 |
| CASR (calcium sensing receptor) | SID134310895 | 0.82 | 0.88 |
| ZFAND1 (zinc finger AN1-type containing 1) | SID134314367 | 0.93 | 0.54 |
| FNBP4 (formin binding protein 4) | SID152146847 | 0.94 | 0.73 |
| MRPL52 (mitochondrial ribosomal protein L52) | SID135623658 | 0.97 | 0.64 |
| RSBN1L (round spermatid basic protein 1 like) | SID135625106 | 0.95 | 0.76 |
| TMEM82 (transmembrane protein 82) | SID152155526 | 1.04 | 0.49 |
| ARL13B (ARF like GTPase 13B) | SID134321304 | 0.87 | 0.74 |
| NCALD (neurocalcin delta) | SID152148058 | 1.37 | 0.82 |
| AP3S2 (adaptor related protein complex 3 subunit sigma 2) | SID135623288 | 0.9 | 0.7 |
| ROBO4 (roundabout guidance receptor 4) | SID134319265 | 1.54 | 0.88 |
| TRPM2 | SID152147430 | 1.28 | 0.88 |
| DCHS1 (dachsous cadherin-related 1) | SID152150889 | 0.93 | 0.54 |
| PFDN1 (prefoldin subunit 1) | SID152149593 | 0.67 | 0.56 |
| CAB39L (calcium binding protein 39 like) | SID135622795 | 1.03 | 0.97 |
| TOM1L2 (target of myb1 like 2 membrane trafficking protein) | SID135623598 | 1.08 | 1.21 |
| TNS3 (tensin 3) | SID135621871 | 1.23 | 0.92 |
| ARHGAP35 (Rho GTPase activating protein 35) | SID152151286 | 1.11 | 1.15 |
| GAK (cyclin G associated kinase) | SID152148846 | 1.09 | 1.02 |
| KCNV1 | SID134311696 | 0.96 | 0.94 |
| CANX (calnexin) | SID152154523 | 1.03 | 0.8 |
| ZNF564 (zinc finger protein 564) | SID152149090 | 0.9 | 0.6 |
| ZG16 (zymogen granule protein 16) | SID134319723 | 1.19 | 0.74 |
| CCDC71L (coiled-coil domain containing 71 like) | SID152149638 | 0.76 | 0.62 |
| APTX (aprataxin) | SID135622515 | 1.08 | 0.82 |
| SRSF6 (serine and arginine rich splicing factor 6) | SID135623075 | 0.79 | 0.52 |
| H2BC14 (H2B clustered histone 14) | SID152155191 | 1.06 | 0.87 |
| SYAP1 (synapse associated protein 1) | SID134321130 | 1.05 | 1.29 |
| PYCR3 (pyrroline-5-carboxylate reductase 3) | SID135622705 | 1.06 | 1.12 |
| ADAM12 (ADAM metallopeptidase domain 12) | SID135620936 | 1.28 | 0.82 |
| MDFI (MyoD family inhibitor) | SID134316420 | 1.01 | 0.74 |
| DOT1L (DOT1 like histone lysine methyltransferase) | SID152152775 | 1.49 | 0.91 |
| EIF4EBP1 | SID152154692 | 1.18 | 1.27 |
| HMGCLL1 (3-hydroxy-3-methylglutaryl-CoA lyase like 1) | SID152154833 | 0.95 | 0.92 |
| ST8SIA5 (ST8 alpha-N-acetyl-neuraminide alpha-2,8-sialyltransferase 5) | SID152147787 | 1.04 | 0.7 |
